{"sequences": {"note": "Sequences of proteins named here, by UniProt entry; tags and fusion partners are left off.", "UniProt P14618": "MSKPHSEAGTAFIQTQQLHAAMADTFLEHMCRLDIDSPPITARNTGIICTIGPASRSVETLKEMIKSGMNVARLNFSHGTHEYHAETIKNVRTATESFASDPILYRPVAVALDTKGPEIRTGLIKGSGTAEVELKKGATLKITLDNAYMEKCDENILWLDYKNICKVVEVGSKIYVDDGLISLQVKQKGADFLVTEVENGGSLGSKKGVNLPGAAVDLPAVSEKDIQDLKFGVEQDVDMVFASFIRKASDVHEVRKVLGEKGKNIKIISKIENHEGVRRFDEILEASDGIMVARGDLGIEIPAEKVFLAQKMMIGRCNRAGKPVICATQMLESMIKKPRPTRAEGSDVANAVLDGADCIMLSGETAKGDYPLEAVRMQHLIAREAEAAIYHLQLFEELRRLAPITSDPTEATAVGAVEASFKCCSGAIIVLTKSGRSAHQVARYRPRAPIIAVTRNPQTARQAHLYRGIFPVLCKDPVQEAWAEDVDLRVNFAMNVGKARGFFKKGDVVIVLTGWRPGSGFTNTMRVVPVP"}, "source": "paper PMC8522147", "key": {"[1]": {"biological_target": "T1, Kinesin family member 2 C (KIF2C) (human (endogenous in MCF7/ADR)) (UniProt Q99661)", "T1 sequence": "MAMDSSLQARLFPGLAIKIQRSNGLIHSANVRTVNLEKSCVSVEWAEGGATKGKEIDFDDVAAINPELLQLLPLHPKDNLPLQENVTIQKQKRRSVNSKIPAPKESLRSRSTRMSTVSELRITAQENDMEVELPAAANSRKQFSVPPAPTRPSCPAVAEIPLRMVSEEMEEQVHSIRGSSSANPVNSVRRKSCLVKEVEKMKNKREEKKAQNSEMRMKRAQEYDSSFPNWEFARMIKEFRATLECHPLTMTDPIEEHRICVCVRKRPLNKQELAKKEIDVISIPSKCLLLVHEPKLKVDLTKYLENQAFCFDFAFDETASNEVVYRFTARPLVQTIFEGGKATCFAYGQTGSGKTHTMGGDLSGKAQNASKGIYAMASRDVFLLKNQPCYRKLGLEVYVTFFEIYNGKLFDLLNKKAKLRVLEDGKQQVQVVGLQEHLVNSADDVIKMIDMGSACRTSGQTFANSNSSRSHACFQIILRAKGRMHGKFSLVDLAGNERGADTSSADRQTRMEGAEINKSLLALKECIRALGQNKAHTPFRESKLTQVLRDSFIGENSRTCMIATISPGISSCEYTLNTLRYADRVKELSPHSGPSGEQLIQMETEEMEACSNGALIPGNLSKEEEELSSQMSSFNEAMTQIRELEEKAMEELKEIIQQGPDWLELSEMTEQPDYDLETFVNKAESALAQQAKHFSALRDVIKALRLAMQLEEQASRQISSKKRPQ", "assay": "co-IP; as a1, MCF7/ADR cells overexpressing TBX15 (pCMV-TBX15), 1 ug/ml DOX for 48 h; precipitated with anti-KIF2C antibody"}, "[2]": {"biological_target": "T1, Kinesin family member 2 C (KIF2C) (human (endogenous in MCF7/ADR))", "assay": "co-IP; MCF7/ADR lysates in NETN buffer (20 mM Tris pH 8.0, 100 mM NaCl, 1 mM EDTA, 0.5% NP-40), 1000 ug lysate, Protein G Sepharose, anti-KIF2C or anti-PKM2 antibody; cells transfected with pCMV, siNC, siTBX15, KIF2C or siKIF2C; 1 ug/ml DOX for 48 h"}, "[3]": {"biological_target": "T1, Kinesin family member 2 C (KIF2C) (human (endogenous in MCF7/ADR))", "assay": "co-IP; as a1, MCF7/ADR cells overexpressing TBX15 (pCMV-TBX15), 1 ug/ml DOX for 48 h; precipitated with anti-KIF2C antibody", "remark": "listed apart in the source"}}, "note": "No constants are given. Whether binding was seen depends on the method and setting. Binding seen in cells or lysates may run through a third protein. Some results given as binding are weak or reduced against the parent protein; the word gives no strength."}
{"substance": "Pyruvate kinase M2 (PKM2) (from UniProt P14618 1-531) (enzyme)", "values": [{"measurement": "binding", "setting": "[1]", "value": "binds"}, {"measurement": "binding", "setting": "[2]", "value": "binds"}, {"measurement": "binding", "setting": "[3]", "value": "no binding (condition: with TBX15 overexpressed)"}]}
